What was measured:
[1] = system: patient-derived GBMSC, IDH1 wildtype (0827); assay: Cell viability, Trypan Blue Exclusion, IDH1 wildtype GBMSC (0827); type: cell-based; conditions: Homo sapiens; single agent, 48 h, three-parameter model, Figure 4
Method: The GBMSC lines used were patient-derived from recurring tumors and gifted to us by Kevin Woolard DVM, PhD from the University of California Davis. The cell lines were named 0827 and 0923. 0827 is the only IDH1 WT cell line used in the main figures in the manuscript and is referred to as IDH1 wildtype in Figure 6. 923 is used only in appendix and is referred to as “IDH1 WT” in Appendix A Figure A1 and “GB SC 2” in Appendix A Figure A2. The 0827 and 923 GBM stem cells were cultured in Neurobasal A minimal media with 1X N-2 supplement, 1X B-27 supplement, 1X GlutaMAX, and (50 units/mL of penicillin/50 μg/mL of streptomycin) from Gibco (Gaithersburg, MD, USA), and human EGF and FGF-154 from Shenandoah Biotechnology (Warwick, PA, USA). The IDH1 mutant cell line was named 905 and will be referred to as IDH1 mutant or R132H IDH1 mutant. It is the only IDH1 mutant cell line used in the main figures. The IDH1 mutant Grade III astrocytoma was named BT 142 and is only used in the appendix figures. It is referred to as “IDH1 mutant” in Appendix A Figure A1 and “IDH1 mt 2” in Appendix A Figure A2. These cells were cultured in the same media as the IDH1 wildtype with the addition of 1 mL of 10 µg/mL PDGF. […] Patient-derived glioma stem cells were generated at the National Cancer Institute, National Institutes of Health (Bethesda, MD). […]

[2] = system: mTORC1 downstream target S6Kinase; assay: pS6K ELISA (phospho-S6Kinase relative to total S6Kinase) in FL83B cells; type: cell-based, mouse; conditions: 2 h treatment, Figure 1A
Method: The Mus musculus (mouse) normal hepatocyte liver cell line (FL83B) was purchased from American Type Culture Collection (Manassas, VA, USA). FL83B cells were cultured in Dulbecco's modified Eagle's medium/Ham's F-12 50/50 Mix with L-glutamine and 15 mM HEPES and 10% fetal bovine serum (FBS), both from Corning (Fremont, CA, USA). The cell line was grown at the standard 37 °C and 5% CO2 conditions. All drug treatment was performed in the absence of pen/strep and FBS. The PathScan® Phospho-[…] (Thr389) Sandwich ELISA and PathScan® Total S6K Sandwich ELISA Kits were purchased from Cell Signaling Technologies (Danvers, MA). In addition, 200,000 cells/well were seeded onto 24-well plates and allowed to grow for 48 h; the media were changed to DMEM-F12 without FBS for the FL83B and standard Neurobasal for the Stem Cells, and cells were incubated for another 18 to 20 h. Cells were treated for two hours with tested compounds at indicated concentrations; the media were aspirated, and plates were washed once with ice-cold PBS. Cells were lysed with 200 μL of lysis buffer; lysates were transferred to a 96-well plate for ELISA. ELISA was performed according to manufacturer's instructions.

[3] = system: mTORC1 downstream target pS6K; assay: pS6K ELISA in patient-derived glioblastoma stem cells; type: cell-based, human; conditions: single dose of 10 µM, Figure 1B
Method: The GBMSC lines used were patient-derived from recurring tumors and gifted to us by Kevin Woolard DVM, PhD from the University of California Davis. The cell lines were named 0827 and 0923. 0827 is the only IDH1 WT cell line used in the main figures in the manuscript and is referred to as IDH1 wildtype in Figure 6. 923 is used only in appendix and is referred to as “IDH1 WT” in Appendix A Figure A1 and “GB SC 2” in Appendix A Figure A2. The 0827 and 923 GBM stem cells were cultured in Neurobasal A minimal media with 1X N-2 supplement, 1X B-27 supplement, 1X GlutaMAX, and (50 units/mL of penicillin/50 μg/mL of streptomycin) from Gibco (Gaithersburg, MD, USA), and human EGF and FGF-154 from Shenandoah Biotechnology (Warwick, PA, USA). The IDH1 mutant cell line was named 905 and will be referred to as IDH1 mutant or R132H IDH1 mutant. It is the only IDH1 mutant cell line used in the main figures. The IDH1 mutant Grade III astrocytoma was named BT 142 and is only used in the appendix figures. It is referred to as “IDH1 mutant” in Appendix A Figure A1 and “IDH1 mt 2” in Appendix A Figure A2. These cells were cultured in the same media as the IDH1 wildtype with the addition of 1 mL of 10 μg/mL PDGF. […] Patient-derived glioma stem cells were generated at the National Cancer Institute, National Institutes of Health (Bethesda, MD). […]

[4] = cited from earlier work

Row | SMILES | IC50 [1] [µM] | concentration of maximum effect on pS6K ([2]; highest dose 10 µM) [µM] | concentration at which significant inhibition of pS6K begins ([2]; phospho-S6K relative to total S6K) [µM] | inhibition of mTORC1 (phosphorylation of pS6K) [3] | chemical liability after prolonged exposure [4]
1 | Fc1ccc(C(c2ccc(F)cc2)N2CCN(C/C=C/c3ccccc3)CC2)cc1 [flunarizine] | 6.8 | – | – | – | –
2 | C(=C\c1ccccc1)/CN1CCN(C(c2ccccc2)c2ccccc2)CC1 [cinnarizine] | – | 10 | 0.1 | inhibitory trend | can cause iatrogenic parkinsonism

— paper PMC7761300, “Novel mTORC1 Inhibitors Kill Glioblastoma Stem Cells” (Pharmaceuticals, 2020)
